PubChem BioAssay AID493246, Drosophila RNAi Screening Center | 2011
Test: 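Genes fly cells need to grow and stay alive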 (primary screen). Cells: Drosophila Kc and S2R+ cells. Reagents: long dsRNA against Drosophila genes. Detection: 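Raw, unnormalised count of remaining cells in each well; per-plate z-scores of cell number underlie the calls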. Scale: Kc cell number and S2R+ cell number: higher = more cells remaining. Rule for the call: 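Active when the per-plate z-score of cell number is 3 or more in the direction of fewer cells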.
In all, the deposit lists about 21,000 reagents; this is a random part of those with a known target gene and a result. Over the whole deposit, 429 (2%) were called active. 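Values are raw and not normalised between plates; calls rest on per-plate z-scores that were not deposited.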 Unmarked entries are inactive. The numbers tell different reagents against one gene apart. No sequences are given here. Not given: the amount of reagent, the time to read-out.

With CG32568, how do the results read?
Kc cell number, rep 1: 1.51e6; Kc cell number, rep 2: 1.50e6; S2R+ cell number, rep 1: 1.16e6; S2R+ cell number, rep 2: 1.21e6

With Tnks (tankyrase), what does the deposit list?
Kc cell number, rep 1: 1.59e6; Kc cell number, rep 2: 1.67e6; S2R+ cell number, rep 1: 1.01e6; S2R+ cell number, rep 2: 1.09e6

For Obp99d (Odorant-binding protein 99d), what was measured?
Kc cell number, rep 1: 1.40e6; Kc cell number, rep 2: 1.43e6; S2R+ cell number, rep 1: 9.33e5; S2R+ cell number, rep 2: 1.04e6

How did the screen score sosie?
Kc cell number, rep 1: 1.57e6; Kc cell number, rep 2: 1.51e6; S2R+ cell number, rep 1: 9.71e5; S2R+ cell number, rep 2: 1.10e6

For betaNACtes1 (Nascent-associated complex beta-subunit-like, testis 1), what was measured?
Kc cell number, rep 1: 1.54e6; Kc cell number, rep 2: 1.48e6; S2R+ cell number, rep 1: 1.07e6; S2R+ cell number, rep 2: 1.18e6

For Rchy1 (Ring finger and CHY zinc finger domain containing 1), what was measured?
Kc cell number, rep 1: 1.48e6; Kc cell number, rep 2: 1.37e6; S2R+ cell number, rep 1: 1.00e6; S2R+ cell number, rep 2: 1.10e6

For nesd (nessun dorma), what does the deposit list?
Kc cell number, rep 1: 1.24e6; Kc cell number, rep 2: 1.43e6; S2R+ cell number, rep 1: 1.30e6; S2R+ cell number, rep 2: 1.09e6

With Cpr30B (Cuticular protein 30B), what does the deposit list?
Kc cell number, rep 1: 1.57e6; Kc cell number, rep 2: 1.67e6; S2R+ cell number, rep 1: 1.36e6; S2R+ cell number, rep 2: 1.44e6

With Egm (Enigma), what was measured?
Kc cell number, rep 1: 1.37e6; Kc cell number, rep 2: 1.52e6; S2R+ cell number, rep 1: 1.19e6; S2R+ cell number, rep 2: 1.19e6

What is on record for CG7059?
Kc cell number, rep 1: 1.21e6; Kc cell number, rep 2: 1.28e6; S2R+ cell number, rep 1: 1.12e6; S2R+ cell number, rep 2: 1.25e6

What did the screen give for RYa-R (RYamide receptor)?
Kc cell number, rep 1: 5.35e5; S2R+ cell number, rep 1: 8.03e5

With Pka-R2 (Protein kinase, cAMP-dependent, regulatory subunit type 2), how do the results read?
Kc cell number, rep 1: 1.86e6; Kc cell number, rep 2: 1.81e6; S2R+ cell number, rep 1: 1.33e6; S2R+ cell number, rep 2: 1.63e6

How did the screen score CG5334?
Kc cell number, rep 1: 1.35e6; Kc cell number, rep 2: 1.42e6; S2R+ cell number, rep 1: 1.09e6; S2R+ cell number, rep 2: 1.15e6

What did the screen give for CG17571 #1?
Kc cell number, rep 1: 5.20e5; S2R+ cell number, rep 1: 7.74e5

For CG17571 #2, what does the deposit list?
Kc cell number, rep 1: 1.48e6; Kc cell number, rep 2: 1.54e6; S2R+ cell number, rep 1: 1.24e6; S2R+ cell number, rep 2: 2.96e5

What did the screen give for CG13912?
Kc cell number, rep 1: 1.39e6; Kc cell number, rep 2: 1.31e6; S2R+ cell number, rep 1: 1.04e6; S2R+ cell number, rep 2: 1.21e6

What is on record for Cog6 (Component of oligomeric golgi complex 6)?
Kc cell number, rep 1: 1.25e6; Kc cell number, rep 2: 1.40e6; S2R+ cell number, rep 1: 9.67e5; S2R+ cell number, rep 2: 8.53e5

For mei-W68 (meiotic W68), what does the deposit list?
Kc cell number, rep 1: 1.76e6; Kc cell number, rep 2: 1.77e6; S2R+ cell number, rep 1: 1.30e6; S2R+ cell number, rep 2: 1.48e6

What is on record for CG3634?
Kc cell number, rep 1: 1.21e6; Kc cell number, rep 2: 1.36e6; S2R+ cell number, rep 1: 1.24e6; S2R+ cell number, rep 2: 1.26e6

For kat80 (katanin 80) #1, how do the results read?
Kc cell number, rep 1: 1.56e6; Kc cell number, rep 2: 1.60e6; S2R+ cell number, rep 1: 1.14e6; S2R+ cell number, rep 2: 1.27e6

With kat80 (katanin 80) #2, what was measured?
Kc cell number, rep 1: 1.51e6; Kc cell number, rep 2: 1.52e6; S2R+ cell number, rep 1: 1.13e6; S2R+ cell number, rep 2: 1.27e6
